Source: PubChem BioAssay AID1458 (National Center for Advancing Translational Sciences (NCATS), 2008)
Out of some 210,000 compounds screened, about 5,900 (2.8%) were called active. Roughly 5% stayed inconclusive and do not appear here. The call rests on the fitted dose curve; in most records, active means well fitted activation curve with a large enough effect; inconclusive means small, poorly fitted or top-dose-only effect; inactive means no such curve, though single readings can be large or run the other way. Only a part is listed here, and it is no random draw. The source gives no active or inactive call for entries shown without one.

Experiment: qHTS Assay for Enhancers of SMN2 Splice Variant Expression; further: nearly all actives have a fitted effect of over 55% in size; on activity change, positive = activation: % of control where 0% means no effect
Conditions: HEK293 SMN2-luciferase splicing reporter, luminescence, 30-36 h; activity change, positive = activation: at 46.1 µM (top of the series) unless noted
Outline: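 HEK293 cells carry an SMN2 […]–luciferase reporter in which exon 7 inclusion puts luciferase in frame. Cells were plated 10-12 h before compound addition, then incubated 30-36 h at 37C. ONE-Glo luminescence was read; sodium butyrate at 4.5 mM final served as control.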
Potency means the concentration at half of the fitted maximal effect.

| Structure (SMILES) | activity change, positive = activation | Potency |
| --- | --- | --- |
| O=C(NCCCCc1ccccc1)c1ccc(Br)o1 | -40.1% |  |
| Cc1ccc(/C=c2\sc3nc(-c4ccccc4Br)nn3c2=O)o1 | 34.9% |  |
| O=C(NCCc1csc(-c2ccccc2)n1)c1c(F)cccc1Cl | inactive: -36.3% |  |
| O=C(O)c1cccc(C(=O)Nc2cccc(NC(=O)C3CCCO3)c2)c1 (stereo not given) | 38.2% |  |
| CCOC(=O)CN1N=C(/C=C/c2ccc(OC)cc2)CCC1=O | 31.3% |  |
| COc1cc(/C(C)=N/NC(=O)CSc2nncn2C)ccc1OCc1ccccc1Cl | 38.9% |  |
| COc1cc(NS(=O)(=O)c2ccc(NC(=O)C34CC5CC(CC(C5)C3)C4)cc2)ncn1 | 40% |  |
| Cc1ccnc(NC2OC(=O)c3ccccc32)c1 (stereo not given) | 37.2% |  |
| Fc1ccc(NC(=S)NNc2ncc(C(F)(F)F)cc2Cl)c(F)c1 | inactive: -60% |  |
| CCOc1ccc2nc(SCc3ccccc3C#N)sc2c1 |  | active: 11.2 µM |
| O=C(NCCc1c[nH]c2ccccc12)C(=O)NCC(c1cccnc1)N1CCN(c2ccccc2)CC1 (stereo not given) | inactive: -90.4% |  |
| N#CC(C#N)=C1C=CC=CN1/C(=C\c1ccccc1Cl)C(=O)c1ccccc1 | inactive: -117% |  |
| COc1ccc(C(=O)N2c3ccccc3C(C)(c3ccc(Cl)cc3)CC2(C)C)cc1 (stereo not given) | inactive: -49.9% |  |
| O=C(Nc1cccc(Cl)c1)O/N=C\c1ccncc1 | 30.1% |  |
| O=C(CC(=O)c1cc(Cl)ccc1O)c1ccccc1 | inactive: -57% |  |
| CCOc1ccc(-c2nnc3sc(COc4ccccc4)nn23)cc1 | 55.2% |  |
| COC(=O)[C@H](C)NC(=O)Nc1ccccc1F | 33.8% |  |
| CC(C)c1cc(C(=O)Nc2cccnc2)no1 |  | active: 35.5 µM |
| Cc1ccccc1NC(=O)CN1C(=O)S/C(=C\c2cccn2-c2cccc(C(=O)O)c2)C1=O | 32.9% |  |
| O=C(Nc1ncc(S(=O)(=O)c2ccc([N+](=O)[O-])cc2)s1)c1cccc2ccccc12 | -68% |  |
| COc1cc(C(=O)Nc2nc(C)c(Cc3ccc4c(c3)OCO4)s2)cc(OC)c1OC | -45.2% |  |
| CN(C)c1nc(Oc2ccc(N)cc2)nc(N(C)C)n1 | 30.1% |  |
| O=C1NC(=O)/C(=C\c2ccc(Cl)nc2)S1 | 76.6% |  |
| Cc1ccc(NC(=O)Nc2ccc(Cl)cn2)cc1 |  | active: 11.2 µM |
| Cc1nc(CN2CCN(C(=O)c3ccc(Br)cc3)CC2)cs1 | 32.3% |  |
| C=CCN1C(=O)S/C(=C\c2ccc(N3CCOCC3)cc2C)C1=O | 39.9% |  |
| O=C(O)c1n[nH]c2c1CCCC2 | 48.6% |  |
| Nc1ccc(C2=Nc3cccc4cccc(c34)N2)cc1 | -43.8% |  |

| Structure (SMILES) | activity change, positive = activation | Potency |
| --- | --- | --- |
| CCOc1ccc(C(=O)Nc2ccc(N3CCN(C)CC3)cc2)cc1Br | inactive: -6.05% |  |
| COc1cccc(NC(=O)c2ccc(C(=O)c3ccccc3)o2)c1 |  | active: 20 µM |
| Cc1sc(NC(=O)COc2ccccc2)c(C#N)c1C | 58.3% |  |
| COCCn1c(-c2ccc(Cl)cc2Cl)nc2c(c(=O)c3ccccc3n2C)c1=O | 33.3% |  |
| CC(C)c1cc(NC(=O)CCl)on1 | -80.9% |  |
| O=C1CC(c2ccccc2)CC2=C1CN(C1CCCCC1)CN2 (stereo not given) | 47.1% |  |
| CN1CCN(CC2(O)CCN(S(=O)(=O)c3ccc(Cl)cc3)CC2)CC1 | inactive: -8.64% |  |
| O=C(Oc1ccc(-c2nnco2)cc1)N1CCCCC1 | 43.2% |  |
| Cc1ccc(C(=O)COc2ccccc2C(=O)Nc2ccccc2)cc1 | inactive: -46.4% |  |
| COc1ccc(N(C(=O)Nc2ccc(Cl)cc2)C2=NCCC2)cc1 | 35% |  |
| O=C(Nc1ccccc1NC(=O)NC1CCCCC1)NC1CCCCC1 | inactive: -78.2% |  |
| CCOC(=O)c1sc2nc(C)nc(SCC(=O)NC(C)CCc3ccccc3)c2c1C (stereo not given) | -19.4% |  |
| COc1ccc(N2CCN(C(=O)Cn3nnc(-c4ccc(N(C)C)cc4)n3)CC2)cc1 | inactive: -42.8% |  |
| O=C(Nc1ccc2oc(-c3ccccc3)nc2c1)c1ccccc1F |  | active: 12.6 µM |
| O=c1c(Cl)c(NCc2ccccc2)cnn1C12CC3CC(CC(C3)C1)C2 | -76.3% |  |
| COc1cnc(SCCC(F)=C(F)F)[nH]c1=O | 31.5% |  |
| COc1ccc(-n2nc(C(=O)NCC(=O)NCC3CCCO3)c3ccccc3c2=O)cc1 (stereo not given) | 31.2% |  |
| CN(C)c1ccc(-c2cc(NCc3ccccc3)ncn2)cc1 |  | active: 0.794 µM |
| CCCCOc1ccc(C(=O)N2CC(C)OC(C)C2)cc1 (stereo not given) | -50.4% |  |
| CCOC(=O)c1sc(NC(=O)c2cccc(S(=O)(=O)N3c4ccccc4CC3C)c2)cc1C (stereo not given) | 16.9% |  |
| CC(C)CC(=O)Nc1ccc(Oc2ccc(NC(=O)CC(C)C)cc2)cc1 | 39.4% |  |
| Cc1nc(NC(=O)c2ccc3c(c2)OCO3)ccc1Br |  | active: 11.2 µM |
| COC(=O)c1ccc(NC(=O)c2ccc(N(C)S(C)(=O)=O)cc2)cc1 | -98% |  |
| CCn1c(COc2cccc(C)c2)nnc1SCC(=O)Nc1cccc(C(=O)O)c1 | 32.5% |  |
| O=C(Nc1cccn(Cc2c(Cl)cccc2Cl)c1=O)c1c(Cl)cccc1Cl | inactive: -32.8% |  |
| COc1ccc(Cn2cc(C(=O)c3ccc(C)c(C)c3)c(=O)c3ccccc32)cc1 | inactive: -34.1% |  |
| O=C(O)c1ccc(N/N=C/c2ccc3ncccc3c2)cc1 | -60% |  |
